Laboratory results: PubChem BioAssay AID743454 (Peter MacCallum Cancer Centre, 2014)
This is one part, drawn at random, of about 18,000 reagents. 450 of all reagents (2.5%) count as active. 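Single biological run; no consistent viability z cut-off exists, so the class columns, not z-scores, define the calls.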 A number with no mark means an inactive call.

Purpose: 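Search for knock-downs that restore vorinostat killing in resistant colon cancer cells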 (primary screen)
Cell system: human HCT116-VR colon cancer cells, selected for vorinostat resistance
Reagent: siRNA pool against human genes, 40 nM siRNA pool
Duration: vorinostat for 24 h, read-out about 72 h after transfection
Challenge: vorinostat at 2.5 µM final
Measured: 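Two measures, CellTiter-Fluor viability and luminescent caspase 3/7 activity, each as fold change against same-plate mock wells, mean of duplicates, then screen-wide robust z-score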
Direction: viability robust z-score: higher = more viable cells than screen typical; caspase robust z-score: higher = more caspase 3/7 activity than screen typical
Hit rule: 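Hits are knock-downs in viability class RV1/RV2 or caspase class CA1/CA2, excluding ones that killed cells in the no-drug cell-count arm; hits then retested with single siRNAs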

TTC23L — viability hit class: no change; caspase hit class: no change; viability robust z-score: -1.15; caspase robust z-score: 0.56
SGPL1 — viability hit class: no change; caspase hit class: no change; viability robust z-score: 0.32; caspase robust z-score: -0.29
DNAJB12 — viability hit class: no change; caspase hit class: no change; viability robust z-score: 0.02; caspase robust z-score: -1.23
LEFTY2 — viability hit class: no change; caspase hit class: no change; viability robust z-score: 1.99; caspase robust z-score: 0.37
CSTB — viability hit class: no change; caspase hit class: no change; viability robust z-score: -2.23; caspase robust z-score: 1.5
GKN1 — viability hit class: no change; caspase hit class: no change; viability robust z-score: 0.87; caspase robust z-score: 0.76
EXOC3 — viability hit class: no change; caspase hit class: no change; viability robust z-score: -0.38; caspase robust z-score: -1.05
BRAP — viability hit class: no change; caspase hit class: no change; viability robust z-score: 0.34; caspase robust z-score: -0.02
AKAP12 — viability hit class: no change; caspase hit class: no change; viability robust z-score: -0.24; caspase robust z-score: -0.28
TMEM255A — viability hit class: no change; caspase hit class: no change; viability robust z-score: 0.03; caspase robust z-score: -0.76
TUBB2B — viability hit class: no change; caspase hit class: no change; viability robust z-score: -0.3; caspase robust z-score: 1.14
OR2A14 — viability hit class: no change; caspase hit class: no change; viability robust z-score: -0.75; caspase robust z-score: 0.71
FCER2 — viability hit class: no change; caspase hit class: no change; viability robust z-score: -0.1; caspase robust z-score: -0.44
VRK1 — viability hit class: no change; caspase hit class: no change; viability robust z-score: -0.57; caspase robust z-score: 0.2

2 neighbouring records already listed:
AKAP12 — viability hit class: no change; caspase hit class: no change; viability robust z-score: -0.24; caspase robust z-score: -0.28
TMEM255A — viability hit class: no change; caspase hit class: no change; viability robust z-score: 0.03; caspase robust z-score: -0.76
